Where no unit stands, none is given here, and values compare only within one read-out.
Columns and labels:
[1] = Serum ethanolamine phospholipid ratios to PtdEt 16:0/18:0 (M01) in human cohorts
[2] = Serum ethanolamine phospholipid levels in human cohorts (dementia severity, post-mortem pathology, age) by flow-injection MS/MS
[3] = serum, females, post mortem SDAT
[4] = serum, females, post mortem control

CCCCCCCC/C=C\CCCCCCCC(=O)OC(COC(=O)CCCCCCCCCCCCCCCCC)COP(=O)(O)OCCN (centres unmarked) [Metabolite M04, PtdEt 18:0/18:1]
Ratio of ethanolamine phospholipid ratios to M01 between cohorts ([1]; AD, All to CN, Male): 0.802
Ratio of ethanolamine phospholipid ratios to M01 between cohorts ([1]; ADAS 5-19 to CN, Male): 0.774
Ratio of ethanolamine phospholipid ratios to M01 between cohorts ([1]; ADAS 20-39 to CN, Male): 0.836
Ratio of ethanolamine phospholipid ratios to M01 between cohorts ([1]; ADAS 40-70 to CN, Male): 0.700
Average serum ethanolamine phospholipid ratio to M01, Mean ([1]; Cognitive Normal, Male, serum): 0.262
Average serum ethanolamine phospholipid ratio to M01, Mean ([1]; SDAT, ADAS 5-19, Male, serum): 0.203
Average serum ethanolamine phospholipid ratio to M01, Mean ([1]; SDAT, ADAS 20-39, Male, serum): 0.219
Average serum ethanolamine phospholipid ratio to M01, Mean ([1]; SDAT, ADAS 40-70, Male, serum): 0.183
Average serum ethanolamine phospholipid ratio to M01, Mean ([1]; SDAT_all, Male, serum): 0.210
Ethanolamine Phospholipid Ratio to M01, Mean, Age Ctl, 30-39, Female ([1]; human serum, females aged 30-39): 0.279
Ethanolamine Phospholipid Ratio to M01, Mean, Age Ctl, 40-49, Female ([1]; human serum, females aged 40-49): 0.283
Ethanolamine Phospholipid Ratio to M01, Mean, Age Ctl, 50-59, Female ([1]; human serum, females aged 50-59): 0.241
Ratio of Ethanolamine Phospholipid Ratio to M01, 50-59 vs. 40-49, Female ([1]; human serum, females aged 50-59 vs. females aged 40-49): 0.850
Ethanolamine Phospholipid Ratio to M01, Mean, Age Ctl, 60-69, Female ([1]; human serum, females aged 60-69): 0.184
Ratio of Ethanolamine Phospholipid Ratio to M01, 60-69 vs. 40-49, Female ([1]; human serum, females aged 60-69 vs. females aged 40-49): 0.652
Ethanolamine Phospholipid Ratio to M01, Mean, Age Ctl, 70+_Female ([1]; human serum, females aged 70+): 0.221
Ratio of Ethanolamine Phospholipid Ratio to M01, 70+ vs. 40-49, Female ([1]; human serum, females aged 70+ vs. females aged 40-49): 0.782
Ratio of Ethanolamine Phospholipid Ratio to M01, 50-59 vs. 40-49, Male ([1]; human serum, males aged 50-59 vs. males aged 40-49): 1.023
Ratio of Ethanolamine Phospholipid Ratio to M01, 60-69 vs. 40-49, Male ([1]; human serum, males aged 60-69 vs. males aged 40-49): 0.883
Ratio of Ethanolamine Phospholipid Ratio to M01, 70+ vs. 40-49, Male ([1]; human serum, males aged 70+ vs. males aged 40-49): 0.889
Ratio of ethanolamine phospholipid ratio to M01, ADAS 5-19 to CN, Female ([1]; serum, females, ADAS 5-19 vs cognitive normal): 0.968
Ratio of ethanolamine phospholipid ratio to M01, ADAS 20-39 to 5-19, Female ([1]; serum, females, ADAS 20-39 vs ADAS 5-19): 1.122
Ratio of ethanolamine phospholipid ratio to M01, ADAS 20-39 to CN, Female ([1]; serum, females, ADAS 20-39 vs cognitive normal): 1.086
Ratio of ethanolamine phospholipid ratio to M01, ADAS 40-70 to 5-19, Female ([1]; serum, females, ADAS 40-70 vs ADAS 5-19): 0.917
Ratio of ethanolamine phospholipid ratio to M01, ADAS 40-70 to 20-39, Female ([1]; serum, females, ADAS 40-70 vs ADAS 20-39): 0.817
Ratio of ethanolamine phospholipid ratio to M01, ADAS 40-70 to CN, Female ([1]; serum, females, ADAS 40-70 vs cognitive normal): 0.887
Ethanolamine phospholipid ratio to M01, Mean, SDAT, ADAS 5-19, Female ([1]; serum, females, SDAT ADAS 5-19): 0.215
Ethanolamine phospholipid ratio to M01, Mean, SDAT, ADAS 20-39, Female ([1]; serum, females, SDAT ADAS 20-39): 0.241
Ethanolamine phospholipid ratio to M01, Mean, SDAT, ADAS 40-70, Female ([1]; serum, females, SDAT ADAS 40-70): 0.197
Ratio of ethanolamine phospholipid ratio to M01, AD, All to CN, Female ([1]; serum, females, all AD vs cognitive normal): 0.986
Ethanolamine phospholipid ratio to M01, Mean, SDAT_all Female ([1]; serum, females, all SDAT): 0.219
Ratio of ethanolamine phospholipid ratio to M01, Autopsy AD vs. Control, Female ([1]; serum, females, autopsy AD vs post mortem control): 1.069
Ethanolamine phospholipid ratio to M01, Mean, Cognitive Normal, Female ([1]; serum, females, cognitive normal): 0.222
Ethanolamine phospholipid ratio to M01, Mean, Post Mortem SDAT Female [1, 3]: 0.092
Ethanolamine phospholipid ratio to M01, Mean, Post Mortem Ctl, Female [1, 4]: 0.086
Ratio of ethanolamine phospholipid ratio to M01, ADAS 20-39 to 5-19, Male ([1]; serum, males, SDAT ADAS 20-39 vs ADAS 5-19): 1.080
Ratio of ethanolamine phospholipid ratio to M01, ADAS 40-70 to 5-19, Male ([1]; serum, males, SDAT ADAS 40-70 vs ADAS 5-19): 0.903
Ratio of ethanolamine phospholipid ratio to M01, ADAS 40-70 to 20-39, Male ([1]; serum, males, SDAT ADAS 40-70 vs ADAS 20-39): 0.837
Ethanolamine phospholipid ratio to M01, Mean, Age Ctl, 30-39, Male ([1]; serum, males, age control 30-39): 0.224
Ethanolamine phospholipid ratio to M01, Mean, Age Ctl, 40-49, Male ([1]; serum, males, age control 40-49): 0.229
Ethanolamine phospholipid ratio to M01, Mean, Age Ctl, 50-59, Male ([1]; serum, males, age control 50-59): 0.235
Ethanolamine phospholipid ratio to M01, Mean, Age Ctl, 60-69, Male ([1]; serum, males, age control 60-69): 0.203
Ethanolamine phospholipid ratio to M01, Mean, Age Ctl, 70+_Male ([1]; serum, males, age control 70+): 0.204
Ethanolamine phospholipid ratio to M01, Mean, Post Mortem SDAT Male ([1]; serum, males, post mortem SDAT): 0.076
Ratio of ethanolamine phospholipid ratio to M01, SDAT vs Control (post mortem, males) ([1]; serum, males, post mortem SDAT vs post mortem control): 0.529
Ethanolamine phospholipid ratio to M01, Mean, Post Mortem Ctl, Male ([1]; serum, males, post mortem control): 0.143
Ratio of serum levels ([2]; AD, All to CN, Male): 0.882
Ratio of serum levels ([2]; ADAS 5-19 to CN, Male): 0.836
Ratio of serum levels ([2]; ADAS 20-39 to 5-19, Male): 1.072
Ratio of serum levels ([2]; ADAS 20-39 to CN, Male): 0.896
Ratio of serum levels ([2]; ADAS 40-70 to 5-19, Male): 0.868
Ratio of serum levels ([2]; ADAS 40-70 to 20-39, Male): 0.810
Ratio of serum levels ([2]; ADAS 40-70 to CN, Male): 0.726
Serum level, Mean ([2]; Cognitive Normal, Female): 0.026
Average serum level, Mean ([2]; Cognitive Normal, Male): 0.030
Serum level, Mean ([2]; Post Mortem Ctl, Male): 0.017
Serum level, Mean ([2]; Post Mortem SDAT Male): 0.007
Ratio of serum levels ([2]; Post mortem SDAT vs Control, Male): 0.420
Serum level, Mean ([2]; SDAT, ADAS 5-19, Female): 0.024
Average serum level, Mean ([2]; SDAT, ADAS 5-19, Male): 0.025
Serum level, Mean ([2]; SDAT, ADAS 20-39, Female): 0.027
Average serum level, Mean ([2]; SDAT, ADAS 20-39, Male): 0.027
Serum level, Mean ([2]; SDAT, ADAS 40-70, Female): 0.024
Average serum level, Mean ([2]; SDAT, ADAS 40-70, Male): 0.022
Serum level, Mean ([2]; SDAT_all, Female): 0.025
Average serum level, Mean ([2]; SDAT_all, Male): 0.026
Ratio, ADAS 5-19 to CN, Female ([2]; serum level ratio, females, ADAS 5-19 vs CN): 0.912
Ratio, ADAS 20-39 to 5-19, Female ([2]; serum level ratio, females, ADAS 20-39 vs ADAS 5-19): 1.126
Ratio, ADAS 20-39 to CN, Female ([2]; serum level ratio, females, ADAS 20-39 vs CN): 1.027
Ratio, ADAS 40-70 to 5-19, Female ([2]; serum level ratio, females, ADAS 40-70 vs ADAS 5-19): 1.022
Ratio, ADAS 40-70 to 20-39, Female ([2]; serum level ratio, females, ADAS 40-70 vs ADAS 20-39): 0.907
Ratio, ADAS 40-70 to CN, Female ([2]; serum level ratio, females, ADAS 40-70 vs CN): 0.932
Ratio, 50-59 vs. 40-49, Female ([2]; serum level ratio, females, age 50-59 vs 40-49): 0.772
Ratio, 60-69 vs. 40-49, Female ([2]; serum level ratio, females, age 60-69 vs 40-49): 0.709
Ratio, 70+ vs. 40-49, Female ([2]; serum level ratio, females, age 70+ vs 40-49): 0.811
Ratio, AD, All to CN, Female ([2]; serum level ratio, females, all AD vs cognitively normal): 0.963
Ratio, Autopsy AD vs. Control, Female ([2]; serum level ratio, females, autopsy AD vs control): 0.775
Ratio, 50-59 vs. 40-49, Male ([2]; serum level ratio, males, age 50-59 vs 40-49): 0.954
Ratio, 60-69 vs. 40-49, Male ([2]; serum level ratio, males, age 60-69 vs 40-49): 1.019
Ratio, 70+ vs. 40-49, Male ([2]; serum level ratio, males, age 70+ vs 40-49): 1.015
Mean serum level, Age Ctl, 30-39, Female ([2]; serum, females, age 30-39): 0.028
Mean serum level, Age Ctl, 40-49, Female ([2]; serum, females, age 40-49): 0.033
Mean serum level, Age Ctl, 50-59, Female ([2]; serum, females, age 50-59): 0.025
Mean serum level, Age Ctl, 60-69, Female ([2]; serum, females, age 60-69): 0.023
Mean serum level, Age Ctl, 70+, Female ([2]; serum, females, age 70+): 0.026
Mean serum level, Post Mortem SDAT, Female [2, 3]: 0.012
Mean serum level, Post Mortem Ctl, Female [2, 4]: 0.016
Mean serum level, Age Ctl, 30-39, Male ([2]; serum, males, age 30-39): 0.026
Mean serum level, Age Ctl, 40-49, Male ([2]; serum, males, age 40-49): 0.027
Mean serum level, Age Ctl, 50-59, Male ([2]; serum, males, age 50-59): 0.025
Mean serum level, Age Ctl, 60-69, Male ([2]; serum, males, age 60-69): 0.027
Mean serum level, Age Ctl, 70+, Male ([2]; serum, males, age 70+): 0.027

— patent US9517222B2, “Method for the treatment of senile dementia of the Alzheimer's type” (Phenomenome Discoveries Inc., priority 2007, dated 2016)
